Results are given in words; binding and its absence hold for the method and conditions named. Some binding calls cover weakened binding; strength is not graded here.
T1: E. coli Exonuclease I (E. coli, UniProt P04995 1-471)
T1 construct: Exonuclease I of E. coli, from plasmid pET14b-E. coli Exonuclease I (Addgene 104552); The His tag was cut off with thrombin only for the purified protein; also called ExoI; Exol; source: E. coli BL21 (DE3) pLysS, purified (Ni-NTA, heparin); also in cell lysate (pull-down)
T1 sequence: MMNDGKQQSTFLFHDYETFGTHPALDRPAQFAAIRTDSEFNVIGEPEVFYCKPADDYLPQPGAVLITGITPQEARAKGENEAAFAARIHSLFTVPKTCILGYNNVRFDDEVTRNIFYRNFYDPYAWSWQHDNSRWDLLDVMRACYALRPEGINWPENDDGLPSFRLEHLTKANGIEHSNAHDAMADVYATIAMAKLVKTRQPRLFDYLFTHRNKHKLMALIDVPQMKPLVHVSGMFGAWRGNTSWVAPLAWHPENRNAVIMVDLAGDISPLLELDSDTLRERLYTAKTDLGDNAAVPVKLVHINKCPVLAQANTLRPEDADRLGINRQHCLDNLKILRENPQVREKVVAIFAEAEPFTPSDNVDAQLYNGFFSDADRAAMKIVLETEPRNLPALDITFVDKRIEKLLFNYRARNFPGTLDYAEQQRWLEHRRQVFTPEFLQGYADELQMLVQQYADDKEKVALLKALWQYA

T2: Escherichia coli RecO (Escherichia coli, UniProt P0A7H3 1-242)
T2 construct: RecO of Escherichia coli, synthetic gene in pET28a+ with a TEV site at the 5' end; The His tag was cut off with TEV protease only for the purified protein; source: E. coli Rosetta, purified (Ni-NTA, heparin); also in cell lysate (pull-down); not shown: His tag, N-terminal, cleaved
T2 sequence: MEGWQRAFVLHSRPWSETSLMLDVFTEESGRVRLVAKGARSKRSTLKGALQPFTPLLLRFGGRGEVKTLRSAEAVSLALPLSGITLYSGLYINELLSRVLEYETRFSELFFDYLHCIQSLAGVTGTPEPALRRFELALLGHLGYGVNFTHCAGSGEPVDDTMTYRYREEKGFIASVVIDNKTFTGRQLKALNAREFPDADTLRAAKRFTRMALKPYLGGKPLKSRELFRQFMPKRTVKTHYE


target: T1, E. coli Exonuclease I; test: 19F-NMR; 19F signals of peptides with 4-CF3-Phe residues, ExoI added in a 1:1 ratio; both purified

| binding | Binder |
| --- | --- |
| binds | DFDDDIPF (4-CF3-Phe at positions 2 and 8; N-terminus closed by acetylation) [E2-sSSB-Ct (Asp–4-CF3-Phe–Asp–Asp–Asp–Ile–Pro–4-CF3-Phe)] |
| binds | DFDDDIPF (4-CF3-Phe at position 8; N-terminus closed by acetylation) [mSSB-Ct 4CF3-Phe8 (unlabelled single mutant)] |
| binds | DFDDDIPF (4-CF3-Phe at position 2; N-terminus closed by acetylation) [mSSB-Ct 4CF3-Phe2 (unlabelled single mutant)] |

target: T1, E. coli Exonuclease I; test: fluorescence polarisation; competition fluorescence anisotropy: 0.5 µM ExoI, 50 nM F-wtSSB tracer, 0–500 µM unlabeled peptide, 30 min at room temperature, read at 25 °C; 20 mM Tris-HCl pH 8.0, 100 mM NaCl, 1 mM MgCl2, 1 mM 2-mercaptoethanol, 10% glycerol; both purified

| binding | Binder |
| --- | --- |
| binds | DFDDDIPF (β^3-Asp at position 4; N-terminus closed by acetylation) [mSSB-Ct with β^3-Asp at position 4 (unlabelled single mutant)] |
| binds | DFDDDIPF (4-Cl-Phe at position 8; N-terminus closed by acetylation) [mSSB-Ct with 4-Cl-Phe at position 8 (unlabelled single mutant)] |
| binds | DFDDDIPF (3-Cl-Phe at position 2; N-terminus closed by acetylation) [mSSB-Ct with 3-Cl-Phe at position 2 (unlabelled single mutant)] |
| binds | EFDDDIPF (N-terminus closed by acetylation) [mSSB-Ct with Asp to Glu at position 1 (unlabelled single mutant)] |
| binds | DFDDDIPF (4-F-proline at position 7; N-terminus closed by acetylation) [mSSB-Ct with 4-F-proline at position 7 (unlabelled single mutant)] |
| binds | DFDDDIPF (4-F-Phe at position 8; N-terminus closed by acetylation) [mSSB-Ct with 4F-Phe at position 8 (unlabelled single mutant)] |
| binds | GGDFDDDIPF (5,6-carboxyfluorescein on the N-terminus) [fluorescein-labeled wtSSB-Ct] |
| binds | DFDDDIPF (N-methyl-Asp (NM-Asp) at position 4; N-terminus closed by acetylation) [mSSB-Ct with NM-Asp at position 4 (unlabelled single mutant)] |

target: T2, Escherichia coli RecO; test: fluorescence polarisation; competition fluorescence anisotropy: 0.5 µM RecO, 50 nM F-wtSSB tracer, 0–500 µM unlabeled peptide, 30 min at room temperature, read at 25 °C; 20 mM Tris-HCl pH 8.0, 200 mM NaCl, 1 mM 2-mercaptoethanol, 10% glycerol, 0.01% Triton-X 100; both purified

| binding | Binder |
| --- | --- |
| binds | DFDDDIPF (4-Cl-Phe at position 8; N-terminus closed by acetylation) [mSSB-Ct with 4-Cl-Phe at position 8 (unlabelled single mutant)] |
| binds | DFDDDIPF (4-F-Phe at position 8; N-terminus closed by acetylation) [mSSB-Ct with 4F-Phe at position 8 (unlabelled single mutant)] |

From PMC10143822, “Structural Adaptation of the Single-Stranded DNA-Binding Protein C-Terminal to DNA Metabolizing Partners Guides Inhibitor Design” (Pharmaceutics, 2023)
